PubChem BioAssay AID1671190 (National Center for Advancing Translational Sciences (NCATS), 2021)
Hit rate of the full screen: of about 580,000 compounds, about 6,100 (1.1%) were called active. Inconclusive results, whose numbers are uncertain, are shown with a selection of clear calls. Calls come from the whole dose curve; as a rule, active = well fitted inhibition curve with a large enough effect; inconclusive = small, poorly fitted or top-dose-only effect, or another doubt; inactive = no such curve, though single readings can be large or run the other way. Potencies of inconclusive entries are doubtful fits and often do not repeat.

Protein sequences, listed by entry. Tags and fused reporters are not part of them. Lines headed by an entry give the natural chain unless they say otherwise; changes in a name come on top.
UniProt P18054: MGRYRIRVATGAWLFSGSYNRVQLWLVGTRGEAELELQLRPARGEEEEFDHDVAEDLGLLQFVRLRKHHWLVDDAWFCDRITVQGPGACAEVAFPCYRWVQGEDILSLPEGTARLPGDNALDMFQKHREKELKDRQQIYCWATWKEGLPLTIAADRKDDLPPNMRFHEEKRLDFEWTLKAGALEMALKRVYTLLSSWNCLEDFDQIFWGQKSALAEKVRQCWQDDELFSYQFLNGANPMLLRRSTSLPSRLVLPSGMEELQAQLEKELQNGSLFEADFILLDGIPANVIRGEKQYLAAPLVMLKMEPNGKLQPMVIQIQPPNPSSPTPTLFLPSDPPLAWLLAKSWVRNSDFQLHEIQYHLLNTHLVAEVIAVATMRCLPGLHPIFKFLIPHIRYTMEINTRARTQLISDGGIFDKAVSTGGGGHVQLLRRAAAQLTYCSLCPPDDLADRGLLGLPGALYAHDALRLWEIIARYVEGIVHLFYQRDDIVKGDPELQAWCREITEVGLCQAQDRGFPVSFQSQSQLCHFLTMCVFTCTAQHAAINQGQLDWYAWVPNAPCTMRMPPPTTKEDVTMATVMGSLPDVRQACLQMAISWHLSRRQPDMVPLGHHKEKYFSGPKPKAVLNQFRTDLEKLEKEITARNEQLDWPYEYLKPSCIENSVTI

Target: Polyunsaturated fatty acid lipoxygenase ALOX12 (Homo sapiens) (UniProt P18054)
Experiment: Primary qHTS assay for inhibitors of human arachidonate 12S-lipoxygenase (ALOX12): Round 2
Details: purified 12hLO, xylenol orange hydroperoxide absorbance; series mostly up to 108 µM
Procedure, shortened: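 Hydroperoxide product was detected by ferrous iron/xylenol orange as the 573 to 405 nm absorbance ratio. Arachidonic acid at 40 uM (final) was turned over for 30 min at room temperature by 150 nM human 12hLO, pH 7.0 Hepes buffer, after 15 min compound preincubation.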
Potency is the fitted concentration of half-maximal effect.

Row | Structure (SMILES) | Potency
1 | CS(=O)(=O)Nc1ccc(C2=NN(C(=O)c3ccco3)C(c3ccccc3)C2)cc1 (configuration not stated) | inconclusive: 31.6 µM [inhibitor, full curve, poor fit]
2 | Cc1nc(CN2Cc3nc(-c4cccc(C(F)(F)F)c4)ccc3OCC2=O)cs1 | inactive
3 | CN(C)c1ccc(CN2CCC3(CC2)COc2ccccc2C(=O)N3)cc1 | active: 39.8 µM
4 | O=C(CN1C(=O)c2ccccc2S1(=O)=O)Nc1ccc(S(=O)(=O)N2CCCC2)cc1 | inactive
5 | COc1ccc(NC(=O)c2c(NC(=O)CNCC(C)C)sc3c2CCC3)c(OC)c1 | inactive
6 | Cc1cc2oc(C(=O)Nc3cccc(Cl)c3)cc(=O)c2cc1C | inactive
7 | O=C(O)C1C2CCC(O2)C1C(=O)Nc1ccc(F)cc1 (configuration not stated) | inconclusive: 56.2 µM [inhibitor, partial curve, poor fit]
8 | Cc1ccc(-n2nnnc2SCc2nc3ccsc3c(=O)[nH]2)c(C)c1 | inconclusive: 22.4 µM [inhibitor, partial curve, poor fit]
9 | C=CCc1cccc2cc(C(=O)N3CCN(C(=O)c4ccco4)CC3)c(=O)oc12 | inactive
10 | N#Cc1ccc(Oc2cccnc2)cc1C#N | inconclusive: 6.31 µM [inhibitor, full curve, poor fit]
11 | CC(C)[C@H](NC(=O)c1ccccc1)C(=O)OCC(=O)c1ccc(S(=O)(=O)N2CCCCC2)cc1 | inconclusive: 126 µM [inhibitor, single point]
12 | NC(CC(=O)O)c1cccc(OCc2ccccc2)c1 (configuration not stated) | inconclusive: 2.82 µM [inhibitor, partial curve, poor fit]
13 | O=C(NC1CCCC1)C(Cc1ccccc1)NS(=O)(=O)c1ccc(Br)s1 (configuration not stated) | inconclusive: 2.24 µM [inhibitor, full curve, poor fit]
14 | O=c1c(-c2ccc(Cl)cc2)nc2cnc(Oc3ccccc3)nc2n1C1CC1 | inconclusive: 17.8 µM [inhibitor, single point]
15 | CC(C)c1ccc(NC(=O)Cn2c(=O)n(CCc3ccccc3)c(=O)c3ccccc32)cc1 | inconclusive: 141 µM [inhibitor, partial curve, poor fit]
16 | O=S(=O)(c1ccc(Oc2ncnc3scc(-c4ccccc4)c23)cc1)N1CCOCC1 | inactive
17 | COc1cccc(S(=O)(=O)N2CC(n3cc(C(=O)NCc4ccncc4)nn3)C2)c1 | inactive
18 | CN(Cc1ccccc1)C1CCN(Cc2ccccc2Cl)CC1 | inconclusive: 3.16 µM [inhibitor, full curve]
19 | COC(=O)c1ccc(CN2CCCC(CO)(Cc3ccc(F)cc3F)C2)cc1 (configuration not stated) | inconclusive: 35.5 µM [inhibitor, partial curve, poor fit]
20 | CCN(C(=O)CSc1n[nH]c(-c2ccccc2)n1)c1c(N)n(Cc2ccccc2)c(=O)[nH]c1=O | inconclusive: 100 µM [inhibitor, single point]
21 | Cc1ccc(NC(=O)C2CCN(c3nc4ccccc4[nH]3)CC2)c(C)c1 | inconclusive: 141 µM [inhibitor, partial curve, poor fit]

Row | Structure (SMILES) | Potency
22 | C/C(CC(=O)Nc1cc(Cl)ccc1Cl)=N\NC(N)=S | inconclusive: 35.5 µM [inhibitor, partial curve, poor fit]
23 | COc1ccc(OC)c(NC(=O)c2c(NCc3cccs3)sc3c2CCCC3)c1 | inconclusive: 126 µM [inhibitor, single point]
24 | Cn1c(=O)nc2n(Cc3ccccc3)c3ccccc3cc-2c1=O | inconclusive: 100 µM [inhibitor, partial curve, poor fit]
25 | N[C@H](C(=O)O)c1ccc(O)c(C(=O)O)c1 | inconclusive: 1.58 µM [inhibitor, partial curve, poor fit]
26 | CCOC(=O)c1cc(NC(=O)c2cnccn2)cc(C(=O)OCC)c1 | inconclusive: 28.2 µM [inhibitor, single point]
27 | CCOc1ccc(CN2CCC(C(=O)N3CCN(c4ccccc4F)CC3)CC2)cc1OC | inconclusive: 1 µM [inhibitor, full curve]
28 | Brc1ccc(-c2cn3nc4c(nc3n2)CCCC4)cc1 | inconclusive: 35.5 µM [inhibitor, single point]
29 | Cc1cccc(NC(=O)CCS(=O)(=O)c2ccccc2)c1 | inconclusive: 112 µM [inhibitor, single point]
30 | S=C(Nc1cccc(Cl)c1Cl)N1CCCC1 | inconclusive: 100 µM [inhibitor, partial curve, poor fit]
31 | COc1ccc(-c2cn(-c3ccc(C)cc3C)c(=S)[nH]2)cc1OC | inconclusive: 44.7 µM [inhibitor, partial curve, poor fit]
32 | O=C(O)/C=C/C(=O)Nc1ccc(-n2nccc2C(F)(F)F)cc1 | inconclusive: 44.7 µM [inhibitor, partial curve, poor fit]
33 | O=C(c1n[nH]c2ccccc12)N1CCCC1c1nc(CCOCC2CCOCC2)no1 (configuration not stated) | inconclusive: 8.91 µM [inhibitor, partial curve, poor fit]
34 | Cc1ccc(OCC(=O)N(Cc2ccc(C)o2)C2CCS(=O)(=O)C2)cc1 (configuration not stated) | inactive
35 | Cc1ccc2nc(NS(=O)(=O)c3ccc(Cl)cc3)c(Nc3ccc4c(c3)OCO4)nc2c1 | inconclusive: 31.6 µM [inhibitor, partial curve, poor fit]
36 | CN(CC(=O)Nc1cccc(C(F)(F)F)c1)S(=O)(=O)c1cccs1 | inconclusive: 89.1 µM [inhibitor, partial curve, poor fit]
37 | CN(C(=O)Cn1nc(-c2ccccc2F)ccc1=O)C1CCS(=O)(=O)C1 (configuration not stated) | inactive
38 | O=C(c1ccc(-n2cncn2)cc1)N1CCCC1c1nc2ccccc2[nH]1 (configuration not stated) | inconclusive: 70.8 µM [inhibitor, single point]
39 | COC(=O)CSc1nc2ccsc2c(=O)n1C | inactive
40 | CCN(CC)S(=O)(=O)c1ccc(/C=C/C(=O)OCC(=O)NCc2ccco2)cc1 | inactive
41 | COc1ccc(C2=Nn3c(nnc3-c3ccccc3OC)SC2)cc1OC | inactive
42 | CCOc1ccccc1NC(=O)c1cc2c(=O)oc3ccccc3c2s1 | inconclusive: 100 µM [inhibitor, partial curve, poor fit]

Single values from the results shown:
`COc1ccc(C2=Nn3c(nnc3-c3ccccc3OC)SC2)cc1OC` – Potency: inactive
`C/C(CC(=O)Nc1cc(Cl)ccc1Cl)=N\NC(N)=S` – Potency: inconclusive: 35.5 µM [inhibitor, partial curve, poor fit]
`COc1ccc(-c2cn(-c3ccc(C)cc3C)c(=S)[nH]2)cc1OC` – Potency: inconclusive: 44.7 µM [inhibitor, partial curve, poor fit]
